In PubChem BioAssay AID504444 (National Center for Advancing Translational Sciences (NCATS), 2011):
Screen size: about 360,000 compounds; about 7,500 (2.1%) were called active. Inconclusive results, whose numbers are uncertain, are shown with a selection of clear calls. The call rests on the fitted dose curve; in most records, active means well fitted inhibition curve with a large enough effect; inconclusive means small, poorly fitted or top-dose-only effect, or effect the other way; inactive means flat fitted curve, though single readings scatter. A potency beside an inconclusive call is a rough fit, not a confirmed value.

Experiment: Nrf2 qHTS screen for inhibitors; further: nearly all actives have a fitted effect of over 60% in size
Details: A549 ARE-Fluc reporter, luciferase luminescence, 18-24 h; activity change, negative = inhibition: at 46 µM (top of the series)
Outline: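 Nrf2 activity is the BugLite luminescence, read 15 min after reagent at room temperature, following CellTiter-Fluor cytotoxicity readout (30 min, 37C). Compound titrations were applied for 18-24 h to 5000 A549 ARE_Fluc cells/well in 5% FBS OPTI-MEM.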
On the % scale 0 is the no-effect control and ±100 the full control effect; potency means the concentration at half of the fitted maximal effect.

SMILES	Potency	activity change, negative = inhibition
N=c1c2c(ccn1CCCc1ccccc1)Oc1ccc3ccccc3c1C2c1ccccc1 (configuration not stated)	active: 14.6 µM	
Cc1cccc(NC(=O)C2C3CCCCC32)c1 (configuration not stated)	inconclusive: 5.8 µM [activator, full curve, poor fit]	
CC(C)c1ccc(/C=N/n2cnnc2)cc1		inactive: 0.0115%
O=c1c2ccccc2nc2n1CCN2		inactive: 4.35%
COc1ccc(CCNC(=O)CN2CCN(c3cccc(C(F)(F)F)c3)CC2)cc1	inconclusive: 32.6 µM [falling, single point]	
C=CCOc1ccc2c(OC)c3ccoc3nc2c1OC		inactive: 29.2%
CCOC(=O)N1CCC(NC(=O)c2cnn(-c3cccc(F)c3)c2-n2cccc2)CC1		inactive: -14.7%
Cc1ccc2oc(C(=O)Nc3cc(C)on3)c(C)c2c1	inconclusive: 1.84 µM [activator, full curve]	
Cc1ccc(S(=O)(=O)NCCC(=O)NCc2ccccc2)cc1	inconclusive: 4.61 µM [activator, single point]	
COc1ccc2oc(C(=O)OCC(=O)N(C)Cc3ccccc3)c(C)c2c1		inactive: -8.77%
CC1Cc2ccccc2N1C(=O)COC(=O)c1ccc(Br)o1 (configuration not stated)		inactive: -15.1%
Cc1c(Cc2ccccc2)c(=O)oc2cc(OCC(=O)NCc3ccccn3)ccc12	inconclusive: 23.1 µM [falling, partial curve, poor fit]	
CCOC(=O)CN(Cc1ccccc1)C(C(=O)NC1CCCCC1)c1ccc(OC)cc1 (configuration not stated)		inactive: -19.5% [at 9.27 µM]
CCC(CC)COC(=O)C1=C(C)NC(=O)NC1c1ccc([N+](=O)[O-])cc1 (configuration not stated)	active: 25.9 µM	
CCOc1cc(C(=O)Nc2cccc3cccnc23)cc(OCC)c1OCC	inconclusive: 13 µM [falling, partial curve]	
COc1ccccc1C(=O)NCCC(=O)Nc1ccc(S(=O)(=O)N2CC(C)CC(C)C2)cc1 (configuration not stated)	active: 13 µM	
COc1ccccc1CCNC(=O)C(=O)Nc1cc2c3c(c1)C(C)C(=O)N3CCC2 (configuration not stated)	inconclusive: 2.59 µM [falling, full curve]	
COc1cccc(OCc2nc3ccccc3[nH]2)c1	inconclusive: 1.84 µM [activator, full curve]	
CCOC(=O)c1sc2nc(CSc3ccccc3Cl)[nH]c(=O)c2c1C	inconclusive: 18.4 µM [falling, partial curve, poor fit]	
CC1=C(C#N)C(Nc2cccc(C)n2)(C(F)(F)F)C(=O)N1 (configuration not stated)	inconclusive: 20.6 µM [falling, partial curve, poor fit]	
COC(=O)CC1C(=O)NCCN1C(=S)Nc1cccc(C)c1 (configuration not stated)		inactive: 12.8%
O=C(Cc1cccc2ccccc12)Nc1ccc2oc(-c3ccccc3)nc2c1	inconclusive: 0.517 µM [falling, full curve]	

Not a retest: an excerpt of the list.
SMILES	Potency	activity change, negative = inhibition
CCOC(=O)c1sc2nc(CSc3ccccc3Cl)[nH]c(=O)c2c1C	inconclusive: 18.4 µM [falling, partial curve, poor fit]	
CC1=C(C#N)C(Nc2cccc(C)n2)(C(F)(F)F)C(=O)N1 (configuration not stated)	inconclusive: 20.6 µM [falling, partial curve, poor fit]	
